{"source": "PubChem BioAssay AID2685", "about": "(National Center for Advancing Translational Sciences (NCATS), 2010)", "note": "About 2,100 (0.66%) of roughly 320,000 compounds were called active. This list was built around the results that the source calls inconclusive (neither active nor inactive); the mix of calls is not that of the screen. Calls follow the shape of the dose curve; as a rule, active = well fitted inhibition curve with a large enough effect in the signal ratio, with a control signal flat (not every such curve was filed as active); inconclusive = small, poorly fitted or top-dose-only effect, or effect the other way, or a change in a side signal; inactive = flat fitted curve, though single readings scatter; the % refers to the signal ratio. Potencies beside an inconclusive call are fits to weak or partial responses and may not hold up. % is scaled to controls: 0 for no effect and ±100 for the full control effect; potency is read from the fitted curve at half-maximal effect."}
{"experiment": "qHTS Assay for Lipid Storage Modulators in Drosophila S3 Cells", "conditions": "BODIPY lipid droplet fluorescence, 18-24 h, cells fed with added oleic acid; lipid storage change, negative = inhibition: at 46.1 µM (top of the series) unless noted", "summary_of_the_method": "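Drosophila S3 cells loaded with oleic acid (400 uM, as added) and compounds at several concentrations; lipid droplets imaged by 488-nm laser-scanning cytometry, 500–530 nm intensity and object ratio to cell channel. Percent activity normalized to 20 uM Triacsin C.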"}
{"smiles": "CC[C@@H](C)[C@H](NS(=O)(=O)c1ccc(C)cc1)C(=O)N1CCC(C(=O)NCC(=O)O)CC1", "lipid storage change, negative = inhibition": "inconclusive: -25.2%"}
{"smiles": "O=C(CCNC(=O)c1ccco1)NCCN1C(=O)S/C(=C\\c2ccc(F)cc2)C1=O", "Potency": "inconclusive: 1.16 µM [activator, full curve, poor fit]"}
{"smiles": "O=C(Nc1ccc2c(c1)OCCO2)c1ccc(NC(=O)C2CCCO2)cc1", "note": "(configuration not stated)", "lipid storage change, negative = inhibition": "inconclusive: -0.464%"}
{"smiles": "c1ccc(CN2CCN(c3ncnc4nc[nH]c34)CC2)cc1", "Potency": "inconclusive: 7.31 µM [rising, partial curve]"}
{"smiles": "N#C/C(=C(/O)COc1ccc(Cl)cc1)c1nc2ccccc2s1", "lipid storage change, negative = inhibition": "inconclusive: -18.9%"}
{"smiles": "CN1/C(=C\\C(=O)COC(=O)c2ccc(O)cc2)C(C)(C)c2ccccc21", "Potency": "inconclusive: 0.0146 µM [falling, full curve, poor fit]"}
{"smiles": "CCN1C(=O)CC(NC2CCN(C(=O)c3ccc(F)cc3)CC2)C1=O", "note": "(configuration not stated)", "lipid storage change, negative = inhibition": "inconclusive: 12.8%"}
{"smiles": "COC(=O)c1c(NC(=O)Cc2ccccc2)sc2c1CCN(C(C)C)C2", "lipid storage change, negative = inhibition": "inconclusive: 11.9%"}
{"smiles": "COc1ccc(-n2c(C)cc(/C=C3/SC(=S)N(C)C3=O)c2C)cc1", "lipid storage change, negative = inhibition": "inconclusive: -5.36%"}
{"smiles": "O=C(NCC(=O)N1CCN(c2cccc(Cl)c2)CC1)c1ccc(Br)o1", "Potency": "inconclusive: 29.1 µM [activator, single point]"}
{"smiles": "COc1cc(C(=O)N2CCN(C(=O)C(Cc3cc(C)ccc3C)NC(C)=O)CC2)cc(OC)c1OC", "note": "(configuration not stated)", "lipid storage change, negative = inhibition": "inconclusive: 5.05%"}
{"smiles": "CC(C)C(NC(=O)c1cccc(S(=O)(=O)N2CCOCC2)c1)C(=O)NCc1ccc(Cl)cc1", "note": "(configuration not stated)", "Potency": "inconclusive: 32.6 µM [falling, single point]"}
{"smiles": "COC(=O)c1nc(NC(=O)c2ccc(Cl)cc2)n[nH]1", "Potency": "inconclusive: 32.6 µM [falling, single point]"}
{"smiles": "CCOc1ccc(C(=O)NCCCn2ccnc2)cc1", "Potency": "inconclusive: 20.6 µM [activator, single point]"}
{"smiles": "CC1=CCC(C(=O)O)C(C(=O)O)C1", "note": "(configuration not stated)", "lipid storage change, negative = inhibition": "inconclusive: -3.43%"}
{"smiles": "COC(=O)N[C@@H]1C[C@H]2[C@@H]3CC[C@H]4C[C@@H](OC)CC[C@]4(C)[C@H]3CC[C@]12C", "Potency": "inconclusive: 4.11 µM [activator, single point]"}
{"smiles": "Cc1cccc(N(C(=O)CCC(=O)Nc2cc(C)on2)C(C(=O)NC2CCCC2)c2ccncc2)c1", "note": "(configuration not stated)", "Potency": "inconclusive: 6.51 µM [activator, single point]"}
{"smiles": "Cc1ccc(C23CC4CC(CC(CC(=O)NC(C)(C)CO)(C4)C2)C3)cc1", "Potency": "inconclusive: 9.2 µM [falling, partial curve, poor fit]"}
{"smiles": "O=C(NNc1nc2ccccc2s1)c1ccc(F)cc1", "Potency": "inconclusive: 1.16 µM [falling, full curve, poor fit]"}
{"smiles": "CCn1c2ccccc2c2cc(/C=N/n3c(-c4cc(C)[nH]n4)n[nH]c3=S)ccc21", "lipid storage change, negative = inhibition": "inconclusive: -19.6%"}
{"smiles": "COc1cc(NC(=O)CSc2nc3cc(C)ccc3cc2C)c(C(=O)O)cc1OC", "Potency": "inconclusive: 2.06 µM [falling, partial curve, poor fit]"}
{"smiles": "O=C(c1ccc2c(c1)OCO2)N1CCc2ccccc21", "Potency": "inconclusive: 6.51 µM [activator, partial curve]"}
{"smiles": "COc1cccc(C(O)c2cnc(C(C)C)n2C)c1", "note": "(configuration not stated)", "Potency": "inconclusive: 0.411 µM [activator, full curve, poor fit]"}
{"smiles": "Cn1cnnc1SCC(=O)Nc1ccc(OCc2ccccc2)cc1", "lipid storage change, negative = inhibition": "inconclusive: 49.1%"}
{"smiles": "CCC(=O)N1CCN(c2ccc(NC(=O)c3ccco3)cc2)CC1", "lipid storage change, negative = inhibition": "inconclusive: 9.37%"}
{"smiles": "Cc1cc(OC(=O)c2cccc(Cl)c2)c([N+](=O)[O-])c(=O)[nH]1", "lipid storage change, negative = inhibition": "inconclusive: 496%"}
{"smiles": "CC(C)(C#N)Cc1cc(CC(C)(C)C#N)cc(C(C)(C)C)c1", "Potency": "inconclusive: 2.91 µM [falling, full curve, poor fit]"}
{"smiles": "Clc1ccc(OCCN2CCN(c3ncnc4sccc34)CC2)cc1", "lipid storage change, negative = inhibition": "inconclusive: -63.1%"}
{"smiles": "O=C(CCCCCNC(=O)N1CCn2c1nc1ccccc12)NCc1ccccc1", "lipid storage change, negative = inhibition": "inactive"}
{"smiles": "O=C(O)Cn1cnc2sc3c(c2c1=O)CCCC3", "lipid storage change, negative = inhibition": "inconclusive: 0.549%"}
{"smiles": "Cc1cccc(OCC(=O)N2CCN(S(C)(=O)=O)CC2)c1", "lipid storage change, negative = inhibition": "inconclusive: -25.4%"}
{"smiles": "CC(C)Cn1cnc2c1c(=O)n(CC(=O)NN)c(=O)n2Cc1ccccc1", "lipid storage change, negative = inhibition": "inconclusive: 8.64%"}
{"smiles": "O=C(CCC(=O)c1ccc[nH]1)c1ccc(Cl)cc1", "lipid storage change, negative = inhibition": "inconclusive: -12.2%"}
{"smiles": "COc1ccc(/C=N/c2oc(C)c(C)c2C#N)c(OC)c1", "Potency": "inconclusive: 29.1 µM [activator, single point]"}
{"smiles": "COc1ccc(CCNC(=O)c2cc(S(=O)(=O)N3CCOCC3)ccc2F)cc1", "lipid storage change, negative = inhibition": "inconclusive: 16%"}
{"smiles": "CCOc1cc(C)nc(N2CCCC(C(=O)NCc3ccccc3F)C2)n1", "note": "(configuration not stated)", "Potency": "inconclusive: 0.0058 µM [activator, full curve, poor fit]"}
{"smiles": "Cc1ccccc1Oc1nc2ccccc2n2cnnc12", "lipid storage change, negative = inhibition": "inconclusive: -12.2%"}
{"smiles": "COc1ccc(-c2nn(-c3ccccc3)cc2/C=N/NC(=O)c2cccc(S(=O)(=O)Nc3ccccc3Cl)c2)cc1", "lipid storage change, negative = inhibition": "inconclusive: 64.6%"}
{"smiles": "COc1ccccc1C(=O)NNC(=O)CCCN1C(=O)/C(=C/c2cccs2)SC1=S", "lipid storage change, negative = inhibition": "inconclusive: -38.9%"}
{"smiles": "CC(=O)c1nn(-c2cccc(Br)c2)cc1C(=O)c1ccc(C)cc1", "lipid storage change, negative = inhibition": "inconclusive: 52.5%"}
{"smiles": "COc1ccccc1C(=O)NNC(=O)c1ccccc1Br", "Potency": "inconclusive: 29.1 µM [activator, single point]"}
{"smiles": "Cc1cccn2c(=O)c(C(=O)NCCCN3CC(C)CC(C)C3)c(O)nc12", "note": "(configuration not stated)", "lipid storage change, negative = inhibition": "inconclusive"}
{"smiles": "Cn1nc(C(=O)Nc2cccc(S(=O)(=O)N3CCCCC3)c2)c2ccccc2c1=O", "lipid storage change, negative = inhibition": "inconclusive"}
{"smiles": "C=CCNc1nnc(-c2ccncc2)s1", "lipid storage change, negative = inhibition": "inconclusive: 15.8%"}
{"smiles": "CCCc1nnc(NC(=O)CCC(=O)NC2CC2)s1", "lipid storage change, negative = inhibition": "inconclusive: 52.3%"}
{"smiles": "CN(C(=O)c1ccc(COc2ccccc2Cl)o1)c1ccccc1", "lipid storage change, negative = inhibition": "inconclusive: -24.2%"}
{"smiles": "Cc1cccc(N(Cc2ccccc2)C(=O)c2cc(S(=O)(=O)N3CCOCC3)ccc2Cl)c1", "lipid storage change, negative = inhibition": "inconclusive"}
